Source: PubChem BioAssay AID1259331 (Drosophila RNAi Screening Center, 2017)
The deposit covers about 3,100 reagents; this is a part drawn at random. 126 of them (4.1%) were called active. 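Calls are per reagent; zinc was so toxic that few knock-downs lowered ATP further, so most hits raise ATP.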 Raw values vary from plate to plate and are shown uncorrected. Entries without a mark were called inactive. Names joined by + are all predicted targets of the reagent. Not stated in the record: the amount of reagent.

Purpose: 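Knock-downs that alter ATP level after a high zinc chloride dose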 (primary screen)
Cell system: Drosophila S2R+ cells
Reagents: long dsRNA against Drosophila genes
Duration: 5 days (4 days knock-down, then 1 day zinc)
Treatment: zinc chloride at 15 mM final level for 1 day
Measured: 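Luminescent ATP assay standing in for viability; Z score is the mean over three replicate plates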
Reading the numbers: mean Z score: higher = more ATP than other wells, better survival under zinc; ATP luminescence: higher = more ATP, more viable cells
Rule for the call: 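Hit when the absolute Z score is greater than 1.5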
Calls: active = hit, ATP up or down; inactive = not a hit

The first 5 records, ahead of the listing:
| target | DRSC id | mean Z score | ATP luminescence, replicate 1 | ATP luminescence, replicate 2 |
| --- | --- | --- | --- | --- |
| Ac3 | DRSC03692 | -0.594 | 26411 | 27885 |
| Ac3 | DRSC39826 | -0.236 | 53329 | 52428 |
| CG8399 | DRSC07163 | -0.404 | 27456 | 30867 |
| CG8399 | DRSC39793 | 0.139 | 58746 | 57572 |
| Ndc1 | DRSC15895 | 1.79 (active) | 67818 | 63479 |

Results, repeating the preview:
| target | DRSC id | mean Z score | ATP luminescence, replicate 1 | ATP luminescence, replicate 2 |
| --- | --- | --- | --- | --- |
| Ac3 | DRSC03692 | -0.594 | 26411 | 27885 |
| Ac3 | DRSC39826 | -0.236 | 53329 | 52428 |
| CG8399 | DRSC07163 | -0.404 | 27456 | 30867 |
| CG8399 | DRSC39793 | 0.139 | 58746 | 57572 |
| Ndc1 | DRSC15895 | 1.79 (active) | 67818 | 63479 |
| Ndc1 | DRSC39536 | 1.95 (active) | 71275 | 72262 |
| DAT | DRSC07394 | -0.187 | 62913 | 67475 |
| CG2736 | DRSC04314 | -0.448 | 27045 | 27405 |
| CG2736 | DRSC39898 | -0.0817 | 56105 | 62364 |
| Oatp58Da | DRSC04365 | -0.465 | 44964 | 38685 |
| Oatp58Da | DRSC25499 | 0.172 | 57511 | 59346 |
| Mdr65 | DRSC11220 | 0.179 | 75364 | 69944 |
| AdipoR | DRSC15767 | -0.527 | 39199 | 40828 |
| AdipoR | DRSC39443 | 0.000143 | 51476 | 47994 |
| CG30265 | DRSC21592 | 0.342 | 52504 | 52220 |
| MstProx | DRSC12458 | 0.194 | 65262 | 73354 |
| MstProx | DRSC12601 | 0.0999 | 45508 | 46331 |
| FMRFaR | DRSC08555 | -0.232 | 69310 | 66788 |
| laza | DRSC23330 | 0.00746 | 47069 | 48937 |
| laza | DRSC29129 | 0.262 | 61729 | 69213 |
| CNT2 | DRSC07073 | 0.231 | 31595 | 35608 |
| CG1090 | DRSC21604 | 0.143 | 52504 | 49103 |
| Ir56c | DRSC06544 | -0.861 | 54047 | 57734 |
| Ir56c | DRSC26227 | -0.698 | 41102 | 55676 |
| mth | DRSC08725 | -0.513 | 27578 | 27370 |
| mth | DRSC39165 | -0.0235 | 51869 | 44668 |
| dmGlut | DRSC02835 | -0.692 | 44119 | 48937 |
| dmGlut | DRSC25891 | -0.648 | 44163 | 46782 |
| mthl3 | DRSC06997 | -2.2 (active) | 14395 | 13881 |
| mthl3 | DRSC24927 | 0.203 | 62727 | 57486 |
| Or43b | DRSC07486 | -0.615 | 51938 | 65748 |
| Or43b | DRSC29565 | 0.266 | 65650 | 65331 |
| AQP | DRSC06122 | -0.31 | 61747 | 68641 |
| AQP | DRSC39533 | -0.245 | 50367 | 44514 |
| Npc1a | DRSC03378 | -0.239 | 46160 | 39148 |
| Npc1a | DRSC39428 | 0.199 | 51406 | 52727 |
| CG14160 | DRSC10161 | -0.546 | 69790 | 53052 |
| CG9483 | DRSC03226 | -0.421 | 53173 | 47206 |
| CG9483 | DRSC29929 | -0.574 | 41084 | 38016 |
| CG15890 | DRSC19737 | 0.853 | 76033 | 84455 |
| List | DRSC06520 | 1.07 | 85261 | 88479 |
| List | DRSC39801 | -0.0599 | 57313 | 53310 |
| Tsp66A + CG42660 + CG42661 | DRSC10233 | -0.775 | 60941 | 52144 |
| Eglp1 | DRSC04502 | -0.831 | 26531 | 23318 |
| Ipo9 | DRSC16813 | -0.538 | 38650 | 50618 |
| Trp1 | DRSC03465 | 0.841 | 63462 | 40519 |
| Trp1 | DRSC24685 | -0.148 | 51216 | 54064 |
